Test results reported in the supplement of paper PMC6143611.
Counter-ions that a name gives are not always drawn. ± gives the uncertainty stated by the source. Some of the results follow. Plates or batches differ in their baseline, so values are only roughly comparable.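 At 6 dpf, larvae had a heat-shock-induced fluorescent stripe placed in rod outer segments; shedding distance, from stripe to outer segment tip, was measured in confocal stacks, roughly three fish per compound. Controls received 0.2% DMSO vehicle; compounds were flagged for ≥20% change versus same-week control and p < 0.001 (Dunnett test, mixed-effects models).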

Tested on: Danio rerio larva rod photoreceptor outer segment
Assay: rod outer segment growth distance Dg, difference from same-week DMSO control mean; higher = more outer segment growth
Settings: 20 µM; treatment time: 4 days (6-10 dpf)

SMILES | rod outer segment growth distance Dg
COc1cc2c(cc1OC)[C@@H]1Cc3ccc(OC)c(OC)c3CN1CC2 [Rotundine] | -0.22 ± 0.22 um
CCN(CC)CCNC(=O)c1c(C)[nH]c(/C=C2\C(=O)Nc3ccc(F)cc32)c1C [Sunitinib Malate] | -1.25 ± 0.19 um
Cc1cc(Cn2cnc3c2CC(C(=O)O)N(C(=O)C(c2ccccc2)c2ccccc2)C3)ccc1N(C)C (stereo not drawn) | -0.45 ± 0.23 um
Nc1nc2c(ncn2COCCO)c(=O)[nH]1 [Aciclovir] | -0.56 ± 0.19 um
Cn1cc(-c2ccc3nnc(C(F)(F)c4ccc5ncccc5c4)n3n2)cn1 | -0.99 ± 0.19 um
CCn1cc(C(=O)O)c(=O)c2ccc(C)nc21 [Nalidixic acid] | -2.72 ± 1.1 um
Cc1ccc(Nc2nccc(N(C)c3ccc4c(C)n(C)nc4c3)n2)cc1S(N)(=O)=O [Pazopanib] | -0.35 ± 0.19 um
CC1(C)CCC(c2ccc(Cl)cc2)=C(CN2CCN(c3ccc(C(=O)NS(=O)(=O)c4ccc(N[C@H](CCN5CCOCC5)CSc5ccccc5)c(S(=O)(=O)C(F)(F)F)c4)cc3)CC2)C1 [ABT-263 (Navitoclax)] | 0.48 ± 0.25 um
CCO[C@@H]1OC(=O)C[C@@H]1NC(=O)[C@@H]1CCCN1C(=O)[C@@H](NC(=O)c1ccc(N)c(Cl)c1)C(C)(C)C | -0.06 ± 0.35 um
COCCCN1CCC(NC(=O)c2cc(Cl)c(N)c3c2OCC3)CC1 [Prucalopride] | -0.22 ± 0.21 um
COc1ccccc1Oc1c(NS(=O)(=O)c2ccc(C(C)(C)C)cc2)nc(-c2ncccn2)nc1OCCO [Bosentan Hydrate] | 0.72 ± 0.12 um
OCCn1cc(-c2cnc3nnn(Cc4ccc5ncccc5c4)c3n2)cn1 | -0.98 ± 0.17 um
CCc1c(O)cc(O)c(C(=O)c2ccc(OCCN3CCOCC3)c(OC)c2)c1CC(=O)N(CCOC)CCOC | 0.57 ± 0.14 um
Cn1c(=O)c2c(ncn2CC(O)CO)n(C)c1=O (stereo not drawn) [Dyphylline] | 0.09 ± 0.21 um
CCN1CCCC1CNC(=O)c1cc(S(=O)(=O)CC)c(N)cc1OC (stereo not drawn) [Amisulpride] | -0.5 ± 0.14 um
COc1cc(NS(=O)(=O)c2ccc(N)cc2)nc(OC)n1 [Sulphadimethoxine] | 1.84 ± 0.28 um
Cc1ccc(S(=O)(=O)n2c(N)nc3ccccc32)cc1 [ML130 (Nodinitib-1)] | -1.57 ± 0.26 um

A stretch from the list above, for reference:
SMILES | rod outer segment growth distance Dg
COc1cc2c(cc1OC)[C@@H]1Cc3ccc(OC)c(OC)c3CN1CC2 [Rotundine] | -0.22 ± 0.22 um
CCN(CC)CCNC(=O)c1c(C)[nH]c(/C=C2\C(=O)Nc3ccc(F)cc32)c1C [Sunitinib Malate] | -1.25 ± 0.19 um

Further structures.

SMILES | rod outer segment growth distance Dg
CN(C)CC/C=C1/c2ccccc2COc2ccc(CC(=O)O)cc21 [Olopatadine HCl] | 0.82 ± 0.3 um
S=c1[nH]cnc2nc[nH]c12 [Mercaptopurine (6-MP)] | 0.4 ± 0.15 um
C[C@H](CS)C(=O)N1CCC[C@H]1C(=O)O [Captopril] | -0.21 ± 0.27 um
CN1CCN(c2c(F)cc3c(=O)c(C(=O)O)cn4c3c2OCN4C)CC1 [Marbofloxacin] | -0.47 ± 0.17 um
COc1ccc(C(=O)CC(=O)c2ccc(C(C)(C)C)cc2)cc1 [Avobenzone] | 1.05 ± 0.26 um
C[C@H](CCC(=O)O)[C@H]1CC[C@H]2[C@@H]3[C@@H](O)C[C@@H]4C[C@H](O)CC[C@]4(C)[C@H]3CC[C@]12C [Ursodiol] | -1.23 ± 0.22 um
Cc1cc([C@@H](C)Nc2ccccc2C(=O)O)c2nc(N3CCOCC3)cc(=O)n2c1 | 1.31 ± 0.24 um
Cc1ccc2c(=O)c3cccc(CC(=O)O)c3oc2c1C [DMXAA (Vadimezan)] | -0.06 ± 0.13 um
Nc1ccc(C(=O)Nc2cccc(-c3nc(N4CCOCC4)c4oc5ncccc5c4n3)c2)cn1 | -0.38 ± 0.21 um
CCOC(=O)C1=C[C@@H](OC(CC)CC)[C@H](NC(C)=O)[C@@H](N)C1 [Oseltamivir phosphate] | -0.33 ± 0.21 um
C[C@@H]1CN(c2c(F)c(N)c3c(=O)c(C(=O)O)cn(C4CC4)c3c2F)C[C@H](C)N1 [Sparfloxacin] | 0.89 ± 0.28 um
O=C1c2ccccc2C(=O)C1c1ccccc1 [Phenindione] | 0.33 ± 0.24 um
CC[C@H]1OC(=O)[C@H](C)[C@@H](O[C@H]2C[C@@](C)(OC)[C@@H](O)[C@H](C)O2)[C@H](C)[C@@H](O[C@@H]2O[C@H](C)C[C@H](N(C)C)[C@H]2O)[C@](C)(O)C[C@@H](C)CN(C)[C@H](C)[C@@H](O)[C@]1(C)O [Azithromycin] | -1.02 ± 0.19 um
CCOc1nc2cccc(C(=O)O)c2n1Cc1ccc(-c2ccccc2-c2nnn[nH]2)cc1 [Candesartan] | 0.26 ± 0.16 um
Cn1cc(/C=C/C(=O)c2cccc(F)c2)cc1/C=C/C(=O)NO | -0.98 ± 0.16 um
CCC[C@H](NC(=O)[C@@H]1[C@H]2CCC[C@H]2CN1C(=O)[C@@H](NC(=O)[C@@H](NC(=O)c1cnccn1)C1CCCCC1)C(C)(C)C)C(=O)C(=O)NC1CC1 [Telaprevir (VX-950)] | -0.66 ± 0.14 um
